Laboratory results: the supplement of paper PMC6078165

Test system: MDAMB436
Experiment: relative JC-1 red fluorescence (viability) vs pre-drug, coculture with fibroblast (fraction); higher = more viable cancer cells
Experimental: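 JC-1 labelled TNBC cells cocultured 1:1 (1,500 cells each) with CellTrace Violet stained primary or stromal fibroblasts in 384-well plates in FluoroBrite medium, treated with one of 42 anticancer drugs at 0.1, 1, 10 or 100 uM. JC-1 red fluorescence (mitochondrial integrity in cancer cells only) was read by plate reader every 8 h for 72 h. Values are normalised to each well's pre-drug value. The stock of one drug was tenfold lower, so its dose labels may be too high.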

Cc1c2oc3c(C)ccc(C(=O)N[C@@H]4C(=O)N[C@H](C(C)C)C(=O)N5CCC[C@H]5C(=O)N(C)CC(=O)N(C)[C@@H](C(C)C)C(=O)O[C@@H]4C)c3nc-2c(C(=O)N[C@@H]2C(=O)N[C@H](C(C)C)C(=O)N3CCC[C@H]3C(=O)N(C)CC(=O)N(C)[C@@H](C(C)C)C(=O)O[C@@H]2C)c(N)c1=O [Dactinomycin] (I: T[dV]P[Sar][NMeV] / II: T[dV]P[Sar][NMeV]; ester I:1-I:C, II:1-II:C; linker I:N-II:N via Actinocin(9to1))
relative JC-1 red fluorescence
Conditions	8 h	16 h	24 h	32 h	40 h	48 h	56 h	64 h	72 h
0.1 µM, coculture fibroblast: C12385	0.765	0.714	0.691	0.616	0.58	0.563	0.555	0.546	0.552
0.1 µM, coculture fibroblast: H6013	0.79	0.778	0.78	0.793	0.805	0.86	0.837	0.85	0.834
0.1 µM, coculture fibroblast: H6019	0.765	0.73	0.712	0.658	0.643	0.644	0.647	0.635	0.632
0.1 µM, coculture fibroblast: H6076	0.776	0.724	0.725	0.685	0.683	0.68	0.72	0.736	0.749
0.1 µM, coculture fibroblast: H6231	0.688	0.679	0.733	0.666	0.6842	0.667	0.6846	0.6967	0.716
0.1 µM, coculture fibroblast: HADF	0.774	0.7559	0.7503	0.7333	0.75	0.801	0.765	0.773	0.763
0.1 µM, coculture fibroblast: HCFa	0.7741	0.7523	0.741	0.738	0.756	0.808	0.788	0.813	0.779
0.1 µM, coculture fibroblast: HCPF	0.7357	0.712	0.749	0.703	0.721	0.707	0.747	0.755	0.784
0.1 µM, coculture fibroblast: HHSteC	0.839	0.854	0.872	0.872	0.905	0.86136	0.832	0.791	0.892
0.1 µM, coculture fibroblast: HMF	0.725	0.687	0.692	0.661	0.678	0.663	0.708	0.726	0.765
0.1 µM, coculture fibroblast: HPFa	0.832	0.8073	0.798	0.7826	0.8061	0.863	0.842	0.8592	0.815
0.1 µM, coculture fibroblast: HUF	0.7835	0.724	0.712	0.652	0.614	0.612	0.621	0.628	0.635
0.1 µM, coculture fibroblast: Hs5	0.7379	0.728	0.763	0.726	0.756	0.75	0.796	0.781	0.802
0.1 µM, coculture fibroblast: Hs27A	0.805	0.815	0.833	0.848	0.866	0.834	0.91	0.813	0.893
0.1 µM, coculture fibroblast: Hs343T	0.762	0.719	0.706	0.669	0.663	0.648	0.654	0.667	0.677
0.1 µM, coculture fibroblast: WS1	0.756	0.723	0.725	0.66	0.643	0.631	0.638	0.644	0.66
1 µM, coculture fibroblast: C12385	0.746	0.718	0.71375	0.6468	0.6373	0.627	0.628	0.635	0.652
1 µM, coculture fibroblast: H6013	0.8052	0.779	0.763	0.766	0.775	0.8038	0.786	0.782	0.757
1 µM, coculture fibroblast: H6019	0.73328	0.687	0.665	0.6	0.578	0.576	0.561	0.561	0.558
1 µM, coculture fibroblast: H6076	0.768	0.722	0.736	0.71	0.698	0.688	0.704	0.707	0.707
1 µM, coculture fibroblast: H6231	0.758	0.702	0.755	0.692	0.701	0.683	0.699	0.689	0.684
1 µM, coculture fibroblast: HADF	0.767	0.7606	0.7501	0.74	0.78	0.838	0.793	0.809	0.783
1 µM, coculture fibroblast: HCFa	0.806	0.79	0.792	0.783	0.805	0.839	0.811	0.825	0.804
1 µM, coculture fibroblast: HCPF	0.78593	0.747	0.767	0.723	0.731	0.707	0.715	0.703	0.7
1 µM, coculture fibroblast: HHSteC	0.864	0.831	0.811	0.798	0.809	0.821	0.775	0.759	0.713
1 µM, coculture fibroblast: HMF	0.766	0.71	0.716	0.69	0.692	0.677	0.699	0.687	0.69
1 µM, coculture fibroblast: HPFa	0.844	0.8271	0.8237	0.8018	0.815	0.85	0.796	0.799	0.775
1 µM, coculture fibroblast: HUF	0.815	0.77	0.763	0.708	0.685	0.679	0.666	0.661	0.663
1 µM, coculture fibroblast: Hs5	0.8	0.768	0.778	0.748	0.76	0.733	0.764	0.745	0.754
1 µM, coculture fibroblast: Hs27A	0.802	0.775	0.776	0.792	0.792	0.792	0.803	0.816	0.753
1 µM, coculture fibroblast: Hs343T	0.784	0.737	0.732	0.705	0.71	0.687	0.689	0.683	0.693
1 µM, coculture fibroblast: WS1	0.754	0.7004	0.6806	0.619	0.598	0.592	0.58247	0.576	0.5809

The reference is the same well before dosing, and untreated signal decays as well.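 Fibroblast labels denote human fibroblasts, mainly primary ones from uterus (C12385, HUF), lung (H6013), bone (Hs27A), adrenal (HADF) and skin (WS1), plus mammary HMF and breast cancer-associated Hs343T. Cancer cells are basal-like or mesenchymal-like triple-negative breast cancer lines. A hit is a response shift exceeding 3x replicate standard deviation. The tissue of the other fibroblasts is not given here.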 Numbered stars: 1 amine (or outer) side, 2 acyl side, 3 side chain; on linkers, the order of the positions; unused ones are H or OH. Bridge positions count the residues as written; N and C are the ends. Square brackets hold non-standard residues; d marks the D form. Peptide text beside a SMILES is read from it. I, II: the chains in the order shown. Actinocin(9to1) = Cc1c2oc3c(C)ccc(C(=O)[*:1])c3nc-2c(C(=O)[*:2])c(N)c1=O; NMeV = CN[C@H](C(=O)O)C(C)C; Sar = CNCC(=O)O
